Our source for the binding values is publication PMC8054397.

Chains of the proteins cited; added tags and fusions are not shown.
UniProt Q13315: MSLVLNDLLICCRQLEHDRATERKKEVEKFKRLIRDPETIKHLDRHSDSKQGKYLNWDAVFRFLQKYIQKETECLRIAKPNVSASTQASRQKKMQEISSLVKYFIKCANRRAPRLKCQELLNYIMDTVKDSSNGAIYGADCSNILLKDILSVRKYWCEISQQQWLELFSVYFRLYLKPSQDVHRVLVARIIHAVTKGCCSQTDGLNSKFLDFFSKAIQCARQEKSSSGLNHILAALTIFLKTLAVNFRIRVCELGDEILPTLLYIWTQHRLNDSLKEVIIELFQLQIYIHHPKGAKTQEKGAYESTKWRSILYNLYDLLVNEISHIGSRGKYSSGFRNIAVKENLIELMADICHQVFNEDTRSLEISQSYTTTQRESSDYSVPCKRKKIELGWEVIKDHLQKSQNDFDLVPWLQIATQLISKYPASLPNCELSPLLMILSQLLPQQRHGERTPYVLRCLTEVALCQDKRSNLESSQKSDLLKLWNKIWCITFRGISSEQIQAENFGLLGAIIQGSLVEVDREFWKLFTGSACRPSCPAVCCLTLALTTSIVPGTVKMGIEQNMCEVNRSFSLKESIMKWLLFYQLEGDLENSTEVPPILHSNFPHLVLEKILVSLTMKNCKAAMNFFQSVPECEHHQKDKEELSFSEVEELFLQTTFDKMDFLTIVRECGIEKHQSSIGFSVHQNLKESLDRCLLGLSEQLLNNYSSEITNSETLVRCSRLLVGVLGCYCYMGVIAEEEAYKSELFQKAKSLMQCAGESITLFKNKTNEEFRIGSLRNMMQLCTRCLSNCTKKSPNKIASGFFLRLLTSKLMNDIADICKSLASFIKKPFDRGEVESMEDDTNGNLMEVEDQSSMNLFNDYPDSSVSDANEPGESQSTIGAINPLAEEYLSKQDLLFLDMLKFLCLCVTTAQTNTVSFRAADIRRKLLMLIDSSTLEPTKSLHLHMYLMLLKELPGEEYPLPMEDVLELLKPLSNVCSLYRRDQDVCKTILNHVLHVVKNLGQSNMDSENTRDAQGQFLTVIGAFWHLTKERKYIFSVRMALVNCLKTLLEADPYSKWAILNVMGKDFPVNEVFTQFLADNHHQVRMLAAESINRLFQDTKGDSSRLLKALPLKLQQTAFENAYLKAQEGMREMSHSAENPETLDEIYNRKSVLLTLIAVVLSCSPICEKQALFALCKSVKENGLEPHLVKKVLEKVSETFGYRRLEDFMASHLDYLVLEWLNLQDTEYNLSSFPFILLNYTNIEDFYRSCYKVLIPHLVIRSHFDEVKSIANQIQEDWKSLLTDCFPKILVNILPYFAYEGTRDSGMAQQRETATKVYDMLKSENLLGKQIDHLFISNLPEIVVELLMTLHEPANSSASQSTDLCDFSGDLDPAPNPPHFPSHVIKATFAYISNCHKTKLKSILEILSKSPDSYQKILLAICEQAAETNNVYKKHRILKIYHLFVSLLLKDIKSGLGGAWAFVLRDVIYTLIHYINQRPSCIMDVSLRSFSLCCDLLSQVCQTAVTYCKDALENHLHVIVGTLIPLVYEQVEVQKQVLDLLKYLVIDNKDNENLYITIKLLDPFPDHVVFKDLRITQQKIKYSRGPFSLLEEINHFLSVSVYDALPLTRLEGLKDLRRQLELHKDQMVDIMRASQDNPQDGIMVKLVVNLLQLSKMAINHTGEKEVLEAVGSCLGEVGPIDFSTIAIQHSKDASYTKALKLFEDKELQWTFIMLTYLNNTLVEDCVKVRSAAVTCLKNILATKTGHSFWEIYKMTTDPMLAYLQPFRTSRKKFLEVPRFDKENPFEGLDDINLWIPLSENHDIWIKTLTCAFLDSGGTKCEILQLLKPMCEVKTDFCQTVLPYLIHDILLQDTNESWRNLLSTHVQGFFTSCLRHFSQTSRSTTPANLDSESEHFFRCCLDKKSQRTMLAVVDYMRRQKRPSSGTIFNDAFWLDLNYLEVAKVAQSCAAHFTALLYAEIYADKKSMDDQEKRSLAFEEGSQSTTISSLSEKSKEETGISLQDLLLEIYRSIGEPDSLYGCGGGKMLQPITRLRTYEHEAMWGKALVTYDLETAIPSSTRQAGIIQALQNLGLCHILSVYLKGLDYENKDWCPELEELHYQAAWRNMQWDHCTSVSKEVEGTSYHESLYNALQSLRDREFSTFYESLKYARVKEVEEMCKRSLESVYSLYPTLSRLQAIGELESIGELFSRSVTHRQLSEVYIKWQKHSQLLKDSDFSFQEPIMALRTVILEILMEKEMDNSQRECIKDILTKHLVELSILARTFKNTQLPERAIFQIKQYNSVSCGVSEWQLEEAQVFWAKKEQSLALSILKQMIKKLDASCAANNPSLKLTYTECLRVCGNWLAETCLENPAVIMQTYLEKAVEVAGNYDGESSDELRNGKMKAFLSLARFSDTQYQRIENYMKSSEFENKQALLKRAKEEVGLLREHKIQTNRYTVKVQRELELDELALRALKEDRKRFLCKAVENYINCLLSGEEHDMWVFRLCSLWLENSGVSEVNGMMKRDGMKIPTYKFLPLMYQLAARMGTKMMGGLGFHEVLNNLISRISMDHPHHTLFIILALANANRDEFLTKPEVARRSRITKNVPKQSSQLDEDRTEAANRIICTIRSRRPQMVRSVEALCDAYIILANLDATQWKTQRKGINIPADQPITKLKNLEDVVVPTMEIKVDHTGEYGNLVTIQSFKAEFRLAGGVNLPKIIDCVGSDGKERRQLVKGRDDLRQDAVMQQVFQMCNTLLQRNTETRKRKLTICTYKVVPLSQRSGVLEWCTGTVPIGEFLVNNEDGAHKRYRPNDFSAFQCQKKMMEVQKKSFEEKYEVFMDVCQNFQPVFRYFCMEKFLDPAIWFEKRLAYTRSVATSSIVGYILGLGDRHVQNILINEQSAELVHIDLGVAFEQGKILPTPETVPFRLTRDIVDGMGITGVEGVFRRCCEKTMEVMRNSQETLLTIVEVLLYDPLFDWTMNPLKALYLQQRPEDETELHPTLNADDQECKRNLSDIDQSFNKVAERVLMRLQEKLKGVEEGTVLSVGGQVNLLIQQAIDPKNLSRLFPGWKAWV
UniProt P20585: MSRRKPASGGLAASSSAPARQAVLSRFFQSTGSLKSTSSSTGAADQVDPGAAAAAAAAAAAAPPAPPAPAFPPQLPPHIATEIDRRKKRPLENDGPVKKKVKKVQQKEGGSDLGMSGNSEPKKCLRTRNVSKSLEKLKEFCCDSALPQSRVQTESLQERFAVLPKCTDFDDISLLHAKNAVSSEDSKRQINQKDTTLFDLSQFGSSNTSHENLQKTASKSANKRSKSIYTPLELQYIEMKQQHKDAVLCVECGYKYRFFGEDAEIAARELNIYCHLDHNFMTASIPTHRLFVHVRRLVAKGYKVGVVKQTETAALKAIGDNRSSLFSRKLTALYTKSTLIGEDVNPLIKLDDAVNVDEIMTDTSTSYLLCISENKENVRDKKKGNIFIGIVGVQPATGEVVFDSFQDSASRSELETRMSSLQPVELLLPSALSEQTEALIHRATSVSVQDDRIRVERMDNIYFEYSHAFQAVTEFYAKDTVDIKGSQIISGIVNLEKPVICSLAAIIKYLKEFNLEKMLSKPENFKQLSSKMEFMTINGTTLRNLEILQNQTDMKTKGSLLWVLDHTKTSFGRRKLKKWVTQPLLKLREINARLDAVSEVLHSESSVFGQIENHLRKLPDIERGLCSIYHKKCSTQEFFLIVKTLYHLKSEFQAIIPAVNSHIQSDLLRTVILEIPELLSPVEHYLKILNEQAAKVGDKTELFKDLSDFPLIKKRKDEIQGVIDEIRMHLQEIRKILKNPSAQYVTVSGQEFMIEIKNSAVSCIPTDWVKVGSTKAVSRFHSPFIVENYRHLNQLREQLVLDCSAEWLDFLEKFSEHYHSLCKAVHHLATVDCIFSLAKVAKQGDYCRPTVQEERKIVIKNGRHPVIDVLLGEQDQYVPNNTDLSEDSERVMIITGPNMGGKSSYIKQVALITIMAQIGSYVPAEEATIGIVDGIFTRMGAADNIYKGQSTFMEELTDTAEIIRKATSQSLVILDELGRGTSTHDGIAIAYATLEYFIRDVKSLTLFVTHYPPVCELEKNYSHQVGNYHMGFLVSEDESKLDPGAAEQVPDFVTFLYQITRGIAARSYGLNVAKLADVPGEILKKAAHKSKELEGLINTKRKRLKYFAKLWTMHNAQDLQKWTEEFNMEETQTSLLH
UniProt P52701: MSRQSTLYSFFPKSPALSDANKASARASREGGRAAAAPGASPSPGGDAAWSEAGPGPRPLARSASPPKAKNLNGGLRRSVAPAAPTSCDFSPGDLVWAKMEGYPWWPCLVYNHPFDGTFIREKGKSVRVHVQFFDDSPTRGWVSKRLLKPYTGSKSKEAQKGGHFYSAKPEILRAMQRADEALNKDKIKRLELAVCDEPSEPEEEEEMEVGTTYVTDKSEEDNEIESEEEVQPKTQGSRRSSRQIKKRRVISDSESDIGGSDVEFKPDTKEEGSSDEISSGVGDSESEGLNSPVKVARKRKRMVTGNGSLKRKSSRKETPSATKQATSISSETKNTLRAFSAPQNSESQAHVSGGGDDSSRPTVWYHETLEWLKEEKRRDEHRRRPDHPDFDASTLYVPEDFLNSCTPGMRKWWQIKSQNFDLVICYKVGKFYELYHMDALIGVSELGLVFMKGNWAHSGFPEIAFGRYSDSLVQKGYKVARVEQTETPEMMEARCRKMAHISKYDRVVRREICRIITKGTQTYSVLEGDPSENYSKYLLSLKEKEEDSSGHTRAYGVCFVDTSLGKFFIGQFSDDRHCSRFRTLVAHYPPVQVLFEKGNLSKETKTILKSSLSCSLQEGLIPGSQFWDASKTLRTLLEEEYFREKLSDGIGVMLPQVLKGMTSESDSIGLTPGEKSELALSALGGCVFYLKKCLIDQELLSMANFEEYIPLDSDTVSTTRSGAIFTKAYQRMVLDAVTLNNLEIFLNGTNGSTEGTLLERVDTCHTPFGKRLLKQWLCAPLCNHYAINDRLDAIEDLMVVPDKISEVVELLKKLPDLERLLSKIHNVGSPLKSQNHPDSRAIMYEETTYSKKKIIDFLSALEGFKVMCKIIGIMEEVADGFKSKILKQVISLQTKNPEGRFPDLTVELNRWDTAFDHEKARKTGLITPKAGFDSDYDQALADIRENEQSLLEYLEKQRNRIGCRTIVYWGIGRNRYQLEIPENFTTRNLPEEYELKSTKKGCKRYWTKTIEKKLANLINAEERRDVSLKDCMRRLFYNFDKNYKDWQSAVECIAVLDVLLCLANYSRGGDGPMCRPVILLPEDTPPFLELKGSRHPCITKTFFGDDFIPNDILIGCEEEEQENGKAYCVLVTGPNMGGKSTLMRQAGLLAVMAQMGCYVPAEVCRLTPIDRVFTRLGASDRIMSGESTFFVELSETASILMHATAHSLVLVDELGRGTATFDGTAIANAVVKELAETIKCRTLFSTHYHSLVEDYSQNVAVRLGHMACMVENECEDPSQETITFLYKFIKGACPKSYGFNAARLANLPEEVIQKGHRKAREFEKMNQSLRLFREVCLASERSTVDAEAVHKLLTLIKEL

The experiment concerns the target ATM (human (endogenous in T24 and UMUC3)) (UniProt Q13315). Briefly: co-IP; anti-ATM antibody adsorbed to protein A/G agarose, 4 h at 4 °C, lysates of T24 and UMUC3 cells in Co-IP buffer, three washes, Western blot. In general terms: A western blot detects proteins with antibodies after separation by electrophoresis.

These are yes or no findings as the source states them, for the method shown. Binding seen in cells or lysates may run through a third protein. Some entries that bind do so weakly or less than the wild type.

On to MSH3 (from UniProt P20585 1-1137), for which the binding result is listed as “no binding”.

For the substance MSH6 (from UniProt P52701 1-1360), the binding result is on record as “binds”.
